# From patent US10688099B2, “Methods for modulating the amount of RNA transcripts” (PTC Therapeutics, Inc., priority 2013, dated 2020)
# Further values from the same series stand in other lists.
# System: RNA isoforms in PNN 1-46 SMA type I patient-derived fibroblasts
# Assay: RNA Abundance Modulation (RNA isoform abundance, iFPM, HiSeq RNA sequencing)
# Format: cell-based, human
# Conditions: 3 μM
# Experimental: Cells from a cell line of interest are cultured in conditions sufficient to yield the number of cells capable of generating enough RNA for subsequent sequencing steps. Cells from the tested cell line are contacted with a compound described herein.
# To culture said cells, they are seeded, at appropriate concentrations in a volume of media in a cell culture container and incubated for 4, 5, 6, 7, 8, 9, 10, or more hours. A concentrated solution of compound in a vehicle (e.g., DMSO) is then added in sufficient volume to result in the intended final concentration of the compound, for example 100 nM, 500 nM, 1 μM, 5 μM, 10 μM, 15 μM, 20 μM, or more. The cells may also be treated with vehicle alone, as a control. A number of replicates of each concentration or control may be made (e.g., 2 replicates). The cells are then incubated at a constant temperature appropriate for cell culture of the particular cell line (e.g., 37° C.) for 6, 12, 18, 24, 48, or more hours. After incubation, the growth medium is removed and the cells are washed with the appropriate buffer (e.g., PBS). Cells are then removed from adherence to the cell culture container by treatment with a solution containing trypsin, and the trypsin subsequently quenched with the appropriate volume of buffer (e.g., DMEM-FBS). The cells are then pelleted with gentle centrifugation (e.g., ≤90×g centrifugal force) and resuspended in a buffer to lyse the cells for extraction of RNA. The cell lysates may then be frozen (e.g., at −80° C.) or, alternately, may immediately be used in a procedure to purify the RNA (e.g. by use of the RNEASY PLUS® minikit). The RNA from cell lysates is eluted in the appropriate volume of buffer (e.g., RNEASE-FREE H2O®). The resulting purified RNA may then be sequenced (e.g., using RNASeq) or analyzed using a human exon array (e.g., by GENECHIP® human exon array) to determine changes in the RNA levels in those cells treated with compound compared to those cells treated only with DMSO. The purified RNA may also be quantified by other methods known in the art.
# Using the RNA data obtained from sequencing, exon array, or other methods, a statistical analysis can reveal changes in the RNA levels of compound-treated compared with control. For example, t-test p-values may be calculated for the data obtained through sequencing and exon array methods in order to compare compound-treated cells to those treated with the DMSO control. […] Analysis of the sequencing and exon array data may then also yield predictions about the cause of the aberrant amount of an RNA transcript in the cells (e.g., perturbation of RNA splicing, RNA transcription, or RNA stability). These predictions may be further confirmed by methods known in the art. For example, RT-PCR and RT-qPCR may be used to confirm the change in amount of RNA transcripts for one or more particular transcripts of interest.
# Following the methods described above in Example 1, PNN 1-46 SMA type I patient-derived fibroblasts were treated with 300 nM or 3 μM Compounds 774 and 808 in 0.5% DMSO.
# 700,000 cells were seeded in 10 mL of medium (DMEM plus 10% FBS) in a T-75 flask. Cells were allowed to attach for at least 4 hrs, after which 50 μL of a 200× compound solution (100% DMSO) was added to each well, and the plate was incubated at 37° C. for 24 hrs.
# At the end of the incubation period, the supernatant was removed and the cells where washed with PBS. TrypLE (Invitrogen) express solution was added (e.g. 1.5 mL per one T75 flask). The flasks were incubated for 3 to 5 min at 37° C. The trypsin was then quenched, e.g., by adding 10 mL DMEM-FBS.
# Next, the cells were pelleted using gentle centrifugation without exceeding 90×g centrifugal force. The supernatant was removed and the cell pellet was re-suspended in 600 μL RLT buffer (the RLT buffer was supplemented with beta-mercaptoethanol according to the RNeasy protocol manual) by pipetting up and down until the pellet was completely dissolved […]
structure (smiles),measurement,setting,value
CCc1nc(C)cn2nc(-c3cc(=O)n4cc(C5CCN(C)CC5)cc(C)c4n3)cc12 [Compound 774],ave Cpd,GAS7 NM_201433,774 iFPM
same,FC (x + 1),GGCT AK021779,1.1596
same,L2FC (x + 1),GGCT AK021779,0.214
same,L2abs (Cpd-DMSO),GGCT AK021779,−0.63
same,abs (Cpd-DMSO),GGCT AK021779,1 iFPM
same,amp FC (x + 1),GGCT AK021779,1.16
same,ave Cpd,GGCT AK021779,4 iFPM
same,FC (x + 1),GGCT NM_024051,1.7413
same,L2FC (x + 1),GGCT NM_024051,0.800
same,L2abs (Cpd-DMSO),GGCT NM_024051,8.65
same,abs (Cpd-DMSO),GGCT NM_024051,402 iFPM
same,amp FC (x + 1),GGCT NM_024051,1.74
same,ave Cpd,GGCT NM_024051,944 iFPM
same,FC (x + 1),GGCT NM_001199815,1.6353
same,L2FC (x + 1),GGCT NM_001199815,0.710
same,L2abs (Cpd-DMSO),GGCT NM_001199815,1.16
same,abs (Cpd-DMSO),GGCT NM_001199815,2 iFPM
same,amp FC (x + 1),GGCT NM_001199815,1.64
same,ave Cpd,GGCT NM_001199815,5 iFPM
same,FC (x + 1),GGCT NM_001199816,4.0099
same,L2FC (x + 1),GGCT NM_001199816,2.004
same,L2abs (Cpd-DMSO),GGCT NM_001199816,5.51
same,abs (Cpd-DMSO),GGCT NM_001199816,46 iFPM
same,amp FC (x + 1),GGCT NM_001199816,4.01
same,ave Cpd,GGCT NM_001199816,60 iFPM
same,FC (x + 1),GGCT NM_001199817,0.2461
same,L2FC (x + 1),GGCT NM_001199817,−2.022
same,L2abs (Cpd-DMSO),GGCT NM_001199817,1.61
same,abs (Cpd-DMSO),GGCT NM_001199817,3 iFPM
same,amp FC (x + 1),GGCT NM_001199817,4.06
same,ave Cpd,GGCT NM_001199817,0 iFPM
same,FC (x + 1),GGCT NR_037669,0.0433
same,L2FC (x + 1),GGCT NR_037669,−4.528
same,L2abs (Cpd-DMSO),GGCT NR_037669,7.81
same,abs (Cpd-DMSO),GGCT NR_037669,224 iFPM
same,amp FC (x + 1),GGCT NR_037669,23.07
same,ave Cpd,GGCT NR_037669,9 iFPM
same,FC (x + 1),GJC1 AK124339,0.6383
same,L2FC (x + 1),GJC1 AK124339,−0.648
same,L2abs (Cpd-DMSO),GJC1 AK124339,3.69
same,abs (Cpd-DMSO),GJC1 AK124339,13 iFPM
same,amp FC (x + 1),GJC1 AK124339,1.57
same,ave Cpd,GJC1 AK124339,22 iFPM
same,FC (x + 1),GJC1 CCDS11487,0.9189
same,L2FC (x + 1),GJC1 CCDS11487,−0.122
same,L2abs (Cpd-DMSO),GJC1 CCDS11487,4.92
same,abs (Cpd-DMSO),GJC1 CCDS11487,30 iFPM
same,amp FC (x + 1),GJC1 CCDS11487,1.09
same,ave Cpd,GJC1 CCDS11487,342 iFPM
same,FC (x + 1),GJC1 NM_005497,1.0836
same,L2FC (x + 1),GJC1 NM_005497,0.116
same,L2abs (Cpd-DMSO),GJC1 NM_005497,7.12
same,abs (Cpd-DMSO),GJC1 NM_005497,139 iFPM
same,amp FC (x + 1),GJC1 NM_005497,1.08
same,ave Cpd,GJC1 NM_005497,1804 iFPM
same,FC (x + 1),GJC1 NM_001080383,4.6793
same,L2FC (x + 1),GJC1 NM_001080383,2.226
same,L2abs (Cpd-DMSO),GJC1 NM_001080383,8.14
same,abs (Cpd-DMSO),GJC1 NM_001080383,282 iFPM
same,amp FC (x + 1),GJC1 NM_001080383,4.68
same,ave Cpd,GJC1 NM_001080383,358 iFPM
same,FC (x + 1),GPSM2 AB445462,0.7229
same,L2FC (x + 1),GPSM2 AB445462,−0.468
same,L2abs (Cpd-DMSO),GPSM2 AB445462,7.09
same,abs (Cpd-DMSO),GPSM2 AB445462,136 iFPM
same,amp FC (x + 1),GPSM2 AB445462,1.38
same,ave Cpd,GPSM2 AB445462,353 iFPM
same,FC (x + 1),GPSM2 AK295563,0.3409
same,L2FC (x + 1),GPSM2 AK295563,−1.552
same,L2abs (Cpd-DMSO),GPSM2 AK295563,8.69
same,abs (Cpd-DMSO),GPSM2 AK295563,414 iFPM
same,amp FC (x + 1),GPSM2 AK295563,2.93
same,ave Cpd,GPSM2 AK295563,213 iFPM
same,FC (x + 1),GPSM2 NM_013296,0.7819
same,L2FC (x + 1),GPSM2 NM_013296,−0.355
same,L2abs (Cpd-DMSO),GPSM2 NM_013296,7.66
same,abs (Cpd-DMSO),GPSM2 NM_013296,203 iFPM
same,amp FC (x + 1),GPSM2 NM_013296,1.28
same,ave Cpd,GPSM2 NM_013296,726 iFPM
same,FC (x + 1),GRK6 AK056697,0.0663
same,L2FC (x + 1),GRK6 AK056697,−3.915
same,L2abs (Cpd-DMSO),GRK6 AK056697,7.15
same,abs (Cpd-DMSO),GRK6 AK056697,142 iFPM
same,amp FC (x + 1),GRK6 AK056697,15.09
same,ave Cpd,GRK6 AK056697,9 iFPM
same,FC (x + 1),GRK6 NM_002082,1.3813
same,L2FC (x + 1),GRK6 NM_002082,0.466
same,L2abs (Cpd-DMSO),GRK6 NM_002082,6.31
same,abs (Cpd-DMSO),GRK6 NM_002082,79 iFPM
same,amp FC (x + 1),GRK6 NM_002082,1.38
same,ave Cpd,GRK6 NM_002082,286 iFPM
same,FC (x + 1),GRK6 NM_001004105,1.2832
same,L2FC (x + 1),GRK6 NM_001004105,0.360
same,L2abs (Cpd-DMSO),GRK6 NM_001004105,6.50
same,abs (Cpd-DMSO),GRK6 NM_001004105,90 iFPM
same,amp FC (x + 1),GRK6 NM_001004105,1.28
same,ave Cpd,GRK6 NM_001004105,409 iFPM
same,FC (x + 1),GRK6 NM_001004106,0.6950
same,L2FC (x + 1),GRK6 NM_001004106,−0.525
same,L2abs (Cpd-DMSO),GRK6 NM_001004106,7.79
same,abs (Cpd-DMSO),GRK6 NM_001004106,222 iFPM
same,amp FC (x + 1),GRK6 NM_001004106,1.44
same,ave Cpd,GRK6 NM_001004106,504 iFPM
same,FC (x + 1),HAS2 NM_005328,2.2996
same,L2FC (x + 1),HAS2 NM_005328,1.201
same,L2abs (Cpd-DMSO),HAS2 NM_005328,9.55
same,abs (Cpd-DMSO),HAS2 NM_005328,752 iFPM
same,amp FC (x + 1),HAS2 NM_005328,2.30
same,ave Cpd,HAS2 NM_005328,1329 iFPM
same,FC (x + 1),HAT1 AK309001,2.7002
same,L2FC (x + 1),HAT1 AK309001,1.433
same,L2abs (Cpd-DMSO),HAT1 AK309001,2.78
same,abs (Cpd-DMSO),HAT1 AK309001,7 iFPM
same,amp FC (x + 1),HAT1 AK309001,2.70
same,ave Cpd,HAT1 AK309001,10 iFPM
same,FC (x + 1),HAT1 NM_003642,1.2362
same,L2FC (x + 1),HAT1 NM_003642,0.306
same,L2abs (Cpd-DMSO),HAT1 NM_003642,9.17
same,abs (Cpd-DMSO),HAT1 NM_003642,574 iFPM
same,amp FC (x + 1),HAT1 NM_003642,1.24
same,ave Cpd,HAT1 NM_003642,3005 iFPM
same,FC (x + 1),HAT1 NR_027862,0.0141
same,L2FC (x + 1),HAT1 NR_027862,−6.153
same,L2abs (Cpd-DMSO),HAT1 NR_027862,6.13
